Over roughly 33,000 sequences, “E-score (-0.5 to 0.5)” has its median near -0.0034; the highest 2% begin near 0.25. Some of the results follow.
biological target: T1, Yap3 (UniProt P38749); assay: PBM E-score (8-mer binding enrichment) (E-score (-0.5 to 0.5)); higher = stronger / more preferred TF binding; settings: protein concentration: 100 nM; construct: GST-full length
T1 sequence: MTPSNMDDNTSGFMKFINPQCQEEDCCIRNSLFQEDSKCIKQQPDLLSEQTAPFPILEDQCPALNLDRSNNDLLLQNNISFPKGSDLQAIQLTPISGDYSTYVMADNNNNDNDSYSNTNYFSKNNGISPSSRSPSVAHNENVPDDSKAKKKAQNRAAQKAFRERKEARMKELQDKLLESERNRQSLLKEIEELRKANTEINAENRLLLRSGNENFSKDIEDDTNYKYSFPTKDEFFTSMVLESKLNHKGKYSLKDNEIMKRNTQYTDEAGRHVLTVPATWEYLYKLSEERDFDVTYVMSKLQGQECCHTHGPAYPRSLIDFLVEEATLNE
Summary of the method: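 The E-score, a modified Wilcoxon-Mann-Whitney statistic, was computed by the Universal PBM Analysis Suite for every ungapped eight-base word pooled with its reverse complement. Scans behind it were normalised with masliner after bound GST-tagged yeast transcription factors were detected with fluorescent anti-GST. The proteins, at about 100-200 nM, had been applied to universal all-10-mer Agilent arrays made double-stranded by primer extension.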

Row | Sequence | PBM E-score
1 | ACTATGAA | 0.145
2 | CGCTAGAA | -0.125
3 | ATGGCGGG | -0.0503
4 | AAATACTC | 0.0374
5 | GCGTCTAA | -0.16
6 | AGGTCGCG | -0.012
7 | ACCTACCA | -0.0858
8 | CGAGAGGC | -0.258
9 | TCGTGGCA | -0.0175
10 | GCGCTTAA | 0.00056
11 | CGACTTCC | -0.0336
12 | CGGCAGCA | -0.0996
13 | GCTGTATA | 0.0379
14 | ACACTGGA | 0.0886
15 | AATCAGCG | 0.157
16 | AACGCCGT | -0.105
17 | AAATACCT | 0.084
18 | CCTATTGC | -0.0755
19 | GATCCCAA | -0.0479
20 | CGACCTGA | -0.0052
21 | AAATTCTC | -0.11
22 | GCATGGGA | -0.197
23 | AAGGAGGA | -0.202
24 | GAAGGTTA | 0.0129
25 | CCCTTGAG | -0.0974

Laid out differently: entries from further up
Row	Sequence	PBM E-score
4	AAATACTC	0.0374
5	GCGTCTAA	-0.16

Next results:

Row | Sequence | PBM E-score
26 | GCCACTGA | -0.169
27 | ATAACTTC | 0.121
28 | AACGTCTA | -0.122
29 | CCATAACG | 0.114
30 | GAGCCTGA | -0.0597
31 | GGAAAATA | 0.182
32 | ACTAACTG | 0.245
33 | GACATACA | 0.256
34 | ACCCTCGG | -0.284
35 | CATACTGA | 0.136
36 | CATTTGTC | 0.0921
37 | GTAGAGGA | -0.195
38 | GCCAGAGA | -0.14
39 | CATGAGGG | -0.0791
40 | AGGCCAAA | -0.0322
41 | CAAGGAAC | 0.078
42 | CTGTCGAA | -0.161
43 | CGTTTGCA | 0.0897
44 | CAATGCTA | -0.00529
45 | CCGCTCGC | -0.178
46 | AGCTAACG | -0.0112
47 | AGTGATAA | 0.107
48 | AAAGCAAG | 0.206
49 | AAGATTCG | 0.167
50 | GCTTAAGA | -0.0272

Row | Sequence | PBM E-score
51 | ACCCATAG | -0.286
52 | TCAGCCGA | -0.134
53 | AAGACCTC | -0.217
54 | AAGCGCTG | -0.0246
55 | CTCAAGGA | 0.0643
56 | ATATAAGA | 0.346
57 | AAATAAGA | 0.164
58 | ACCCGTTA | -0.0249
59 | GCAGGACA | -0.0634
60 | CCTCGCTA | -0.143
61 | CTGTTACA | 0.0405
62 | GAAGATCC | -0.191
63 | CCCGCGAA | 0.0694
64 | ATCGTAAG | 0.137
65 | CGTGCATC | -0.223
66 | AGTAAAAC | -0.0237
67 | ACTGCCGC | 0.00407
68 | CATAGAAC | 0.0395
69 | GTGCTCTA | -0.0224
70 | AGATAACA | 0.135
71 | CAGCTAGA | -0.127
72 | AACGTTTG | -0.00788
73 | CCCATGAA | -0.0988
74 | ATGCAGAC | -0.0609
75 | TCAGGCAA | 0.00783

Row | Sequence | PBM E-score
76 | AACAAATG | 0.161
77 | CCTTTTAC | 0.0902
78 | GGACATAC | 0.00756
79 | ACTTAGAT | 0.231
80 | CTTCCAAA | 0.0319
81 | CGGAGCTC | -0.292
82 | GACTCGCA | -0.0178
83 | GATAACGA | 0.174
84 | CAGCAGCA | -0.0247
85 | AAGTCTGG | -0.0153
86 | ATCATATG | 0.203
87 | AGTCTGCA | -0.0452
88 | CCCTCTAG | -0.223
89 | CAAAATTG | 0.184
90 | CACAATGA | 0.181
91 | ATCCATCG | -0.128
92 | ATGTAGAG | -0.0296
93 | CCCTCTGC | -0.322
94 | CCGATACA | 0.0602
95 | ACTAGTTG | -0.0214
96 | GTACAGAC | -0.0267
97 | CACAGTAG | 0.0618
98 | CCATCTTA | 0.00932
99 | CGAGGGAG | -0.23
100 | AATCGGTC | -0.086

Row | Sequence | PBM E-score
101 | AATGGCGG | -0.159
102 | CTCAAACC | -0.0437
103 | ATGCTGCG | -0.0856
104 | ACCTCGTA | 0.109
105 | CGCCACAC | 0.0468
106 | ATAAAACA | 0.154
107 | CCATAGCA | -0.0905
108 | GACTGCGC | -0.117
109 | AACCCGGC | -0.249
110 | AGTCGGGA | -0.136
111 | CATACTCA | 0.043
112 | CTTTAAAC | -0.0648
113 | CGGATGAA | 0.265
114 | GCTCTTCA | -0.117
115 | TAGGGGCA | 0.0604
116 | CGGTCTAC | 0.0134
117 | AACAATCG | 0.0368
118 | GATAACCA | 0.161
119 | CGTTAGTA | 0.241
120 | ATAGGCGA | 0.0427
121 | GGCTGACC | -0.206
122 | TCGAGCAA | 0.02
123 | AGGACATG | -0.00179
124 | CCTTAAGC | -0.0989
125 | CGACGAGC | -0.079

As entered above:
CTTTAAAC | PBM E-score: -0.0648
CGGTCTAC | PBM E-score: 0.0134
CCTTAAGC | PBM E-score: -0.0989
CATACTCA | PBM E-score: 0.043
ATAAAACA | PBM E-score: 0.154
GACTGCGC | PBM E-score: -0.117
AACAATCG | PBM E-score: 0.0368

Next part

Row | Sequence | PBM E-score
126 | ACTGGGGC | -0.171
127 | TCGGAGAA | -0.172
128 | ACGCGGGG | -0.0549
129 | CACTGCTA | 0.025
130 | CCCCTAGC | -0.335
131 | GGCACGCA | -0.0758
132 | ACAGTAAC | 0.188
133 | CAATCCTA | -0.0392
134 | AGTCGGGG | -0.205
135 | AGACCTAG | -0.0688
136 | AACTAGTG | -0.0582
137 | CGTCCGAG | -0.0404
138 | CCGGCCAC | -0.174
139 | AAGGGCGC | -0.115
140 | AGGTATGC | 0.142
141 | ACTAAGTA | 0.124
142 | AACACGGA | 0.0134
143 | ATAGTGCG | 0.053
144 | CATCTACC | 0.145
145 | GACAGGTC | -0.226
146 | GCAGGCGA | -0.142
147 | CGGACTTA | -0.0638
148 | CAGCGTTA | 0.00477
149 | TAAATAAA | 0.282
150 | GAAGATAC | 0.165

3 entries from above, as comma-separated lines:
Row,Sequence,PBM E-score
28,AACGTCTA,-0.122
64,ATCGTAAG,0.137
101,AATGGCGG,-0.159

Going on with the list.

Row | Sequence | PBM E-score
151 | TAATGTCA | 0.151
152 | CCCACCCA | -0.0422
153 | AACTAGGA | 0.0985
154 | CTATTTGA | 0.27
155 | AGAACTTC | -0.0782
156 | GCTAGGCC | -0.229
157 | AACTATGG | -0.0679
158 | AGTATTAT | 0.1
159 | AAAGGTTG | -0.0373
160 | CCTGACGC | -0.175
161 | CAAAAATG | 0.126
162 | AGGACAGG | -0.206
163 | CCGACCCC | -0.364
164 | AAGGCTCC | -0.321
165 | CTTGTCTA | 0.018
166 | AACGAACG | -0.00775
167 | AAATACGT | 0.187
168 | CTCTGCGA | -0.0183
169 | CTCGTTAC | 0.143
170 | TATGTCGA | 0.151
171 | CTTTACAA | -0.009
172 | CTTCTTGA | 0.0155

Source: the supplement of paper PMC3334620
